The series relates to Antibody 4.1. The format is binding, sheep. The following applies: tracer 1 (C7). As for the experimental part: The wells of an enhanced binding 96 well polystyrene microtiter plate were coated with IgG fraction of antiserum (Antibody 4.1 or antibody 4.2) raised to Immunogen 4 in separate host animals, diluted in 10mM Tris, pH8.5 (125µl/well). The appropriate antibody coating dilution was determined using standard ELISA checkerboard techniques. The plate was incubated overnight at 4°C, washed 4 times over 10 minutes with Tris buffered saline containing Tween 20 (TBST) and tapped dry.
Standard solutions of CP47,497 -C8 were prepared in TBST at 0, 2.5, 5, 10, 20, 40, 80 and 160ng/ml for Antibody 4.1, and at 0, 5, 10, 20, 40, 80, 160 and 320ng/ml for Antibody 4.2, and 50µl of each was added to the appropriate wells. 75µl of conjugate (Hapten 1-HRP - tracer 1 - see Figure 4) diluted in Tris buffer (pH 7.2) containing EDTA, D-mannitol, sucrose, thimerosal and BSA, was added to each of the wells. The appropriate dilution of conjugate was also determined using standard ELISA checkerboard techniques. The plate was incubated at 25°C for 1 hour. Excess unbound conjugate was removed by washing 6 times over a 10 minute period with TBST. 125µl of tetramethylbenzidine (TMB) substrate solution was added to each well of the plate that was then incubated for 20 minutes in the dark at room temperature. The reaction was terminated by addition of 125µl 0.2M H2SO4 to each well. The absorbance was then measured at 450nm using a microtiter plate reader.
In order to determine the specificity of the competitive ELISAs, standard solutions of a range of structurally similar compounds were prepared in TBST. Using the calibration curves generated and employing a single level of cross reactants (100ng/ml), these were used to determine the cross-reactivity of each immunoassay with these substances. The results of this study are presented in Table 2, as %B/B0, employing antisera raised against Immunogen 2b (C8), tracer 1 (C7) and (±)-CP-47,497 (C8 homologue) as standard.

Read-outs that look alike come from different tables or passages of the source.

Turning to `CCCCCCCC(C)(C)c1ccc(C2CCCC(O)C2)c(O)c1` (racemic) [(±)-CP-47,497 (C8 homologue)], the A450 (standard 2.5 ng/ml) worked out at 1.529; the A450 (standard 5 ng/ml) turned out to be 1.339; the A450 (standard 10 ng/ml) is 1.117; the A450 (standard 20 ng/ml) was found to be 0.945; the A450 (standard 40 ng/ml) was determined as 0.808; the A450 (standard 80 ng/ml) amounted to 0.700. Besides, the A450 (standard 160 ng/ml) amounted to 0.641.
